# Some of the results follow.
# What was measured:
# Experiment in all cases: glycan array binding signal (z-score within array); higher = stronger binding
# Settings in all cases: glycan notation: IUPAC condensed, linker removed; mutation: D224N
# Fuc(a1-2)Gal = molecular target: Fuc(a1-2)Gal
# Method in brief: (§1)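 The binding signal is a Z-score computed within each array and averaged over linkers. Arrays of the same protein sequence at different concentrations or buffers were also averaged together. Data originate from 3228 arrays in the Consortium for Functional Glycomics database, kept only where the protein sequence was available.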
# Fuc(a1-2)Gal(b1-3)GalNAc = molecular target: Fuc(a1-2)Gal(b1-3)GalNAc
# Method in brief: as §1
# [1] = molecular target: Fuc(a1-2)Gal(b1-3)GalNAc(a1-3)[Fuc(a1-2)]Gal(b1-4)Glc
# Method in brief: as §1
# [2] = molecular target: Fuc(a1-2)Gal(b1-3)GalNAc(a1-3)[Fuc(a1-2)]Gal(b1-4)GlcNAc
# Method in brief: as §1
# [3] = molecular target: Fuc(a1-2)Gal(b1-3)GalNAc(b1-3)Gal
# Method in brief: as §1
# [4] = molecular target: Fuc(a1-2)Gal(b1-3)GalNAc(b1-3)Gal(a1-4)Gal(b1-4)Glc
# Method in brief: as §1
# [5] = molecular target: Fuc(a1-2)Gal(b1-3)GalNAc(b1-4)[Neu5Ac(a2-3)]Gal(b1-4)Glc
# Method in brief: as §1
# Fuc(a1-2)Gal(b1-3)GlcNAc = molecular target: Fuc(a1-2)Gal(b1-3)GlcNAc
# Method in brief: as §1
# [6] = molecular target: Fuc(a1-2)Gal(b1-3)GlcNAc(b1-2)Man(a1-3)[Fuc(a1-2)Gal(b1-3)GlcNAc(b1-2)Man(a1-6)]Man(b1-4)GlcNAc(b1-4)GlcNAc
# Method in brief: as §1
# [7] = molecular target: Fuc(a1-2)Gal(b1-3)GlcNAc(b1-2)Man(a1-3)[Fuc(a1-2)Gal(b1-3)GlcNAc(b1-2)Man(a1-6)]Man(b1-4)GlcNAc(b1-4)[Fuc(a1-6)]GlcNAc
# Method in brief: as §1
# [8] = molecular target: Fuc(a1-2)Gal(b1-3)GlcNAc(b1-3)Gal(b1-4)Glc
# Method in brief: as §1
# [9] = molecular target: Fuc(a1-2)Gal(b1-3)GlcNAc(b1-3)GalNAc
# Method in brief: as §1
# [10] = molecular target: Fuc(a1-2)Gal(b1-3)GlcNAc(b1-3)[Fuc(a1-2)Gal(b1-3)GlcNAc(b1-6)]GalNAc
# Method in brief: as §1
# [11] = molecular target: Fuc(a1-2)Gal(b1-3)GlcNAc(b1-3)[Gal(b1-4)GlcNAc(b1-6)]Gal(b1-4)Glc
# Method in brief: as §1
# [12] = molecular target: Fuc(a1-2)Gal(b1-3)GlcNAc(b1-3)[Neu5Ac(a2-6)Gal(b1-4)GlcNAc(b1-6)]Gal(b1-4)Glc
# Method in brief: as §1
# [13] = molecular target: Fuc(a1-2)Gal(b1-3)GlcNAc6S
# Method in brief: as §1
# [14] = molecular target: Fuc(a1-2)Gal(b1-3)[Fuc(a1-4)]GlcNAc
# Method in brief: as §1
# [15] = molecular target: Fuc(a1-2)Gal(b1-3)[Fuc(a1-4)]GlcNAc(b1-2)Man(a1-3)[Fuc(a1-2)Gal(b1-3)[Fuc(a1-4)]GlcNAc(b1-2)Man(a1-3)]Man(b1-4)GlcNAc(b1-4)GlcNAc
# Method in brief: as §1
# [16] = molecular target: Fuc(a1-2)Gal(b1-3)[Fuc(a1-4)]GlcNAc(b1-2)Man(a1-3)[Fuc(a1-2)Gal(b1-3)[Fuc(a1-4)]GlcNAc(b1-2)Man(a1-6)]Man(b1-4)GlcNAc(b1-4)[Fuc(a1-6)]GlcNAc(b1-4)[Fuc(a1-6)]GlcNAc
# Method in brief: as §1
# [17] = molecular target: Fuc(a1-2)Gal(b1-3)[Fuc(a1-4)]GlcNAc(b1-3)[Fuc(a1-3)[Gal(b1-4)]GlcNAc(b1-6)]Gal(b1-4)Glc
# Method in brief: as §1
# [18] = molecular target: Fuc(a1-2)Gal(b1-3)[Fuc(a1-4)]GlcNAc(b1-3)[Gal(b1-4)GlcNAc(b1-6)]Gal(b1-4)Glc
# Method in brief: as §1
# [19] = molecular target: Fuc(a1-2)Gal(b1-4)Fuc(a1-3)]GlcNAc(b1-2)Man(a1-3)[Fuc(a1-2)Gal(b1-4)[Fuc(a1-3)]GlcNAc(b1-2)Man(a1-6)]Man(b1-4)GlcNAc(b1-4)GlcNAc
# Method in brief: as §1
# Fuc(a1-2)Gal(b1-4)Glc = molecular target: Fuc(a1-2)Gal(b1-4)Glc
# Method in brief: as §1
# Fuc(a1-2)Gal(b1-4)Glc6S = molecular target: Fuc(a1-2)Gal(b1-4)Glc6S
# Method in brief: as §1
# Fuc(a1-2)Gal(b1-4)GlcNAc = molecular target: Fuc(a1-2)Gal(b1-4)GlcNAc
# Method in brief: as §1
# [20] = molecular target: Fuc(a1-2)Gal(b1-4)GlcNAc(b1-2)Man
# Method in brief: as §1
# [21] = molecular target: Fuc(a1-2)Gal(b1-4)GlcNAc(b1-2)Man(a1-3)[Fuc(a1-2)Gal(b1-4)GlcNAc(b1-2)Man(a1-6)]Man(b1-4)GlcNAc(b1-4)GlcNAc
# Method in brief: as §1
# [22] = molecular target: Fuc(a1-2)Gal(b1-4)GlcNAc(b1-2)Man(a1-3)[Fuc(a1-2)Gal(b1-4)GlcNAc(b1-2)Man(a1-6)]Man(b1-4)GlcNAc(b1-4)[Fuc(a1-6)]GlcNAc
# Method in brief: as §1
# [23] = molecular target: Fuc(a1-2)Gal(b1-4)GlcNAc(b1-2)[Fuc(a1-2)Gal(b1-4)GlcNAc(b1-4)]Man(a1-3)[Fuc(a1-2)Gal(b1-4)GlcNAc(b1-2)Man(a1-6)]Man(b1-4)GlcNAc(b1-4)GlcNAc
# Method in brief: as §1
# [24] = molecular target: Fuc(a1-2)Gal(b1-4)GlcNAc(b1-3)Gal(b1-4)GlcNAc
# Method in brief: as §1
binder,measurement,setting,value
a L Fucosidase (Thermotoga maritima) (protein) MASMKPRYKPDWESLREHTVPKWFDKAKFGIFIHWGIYSVPGWATPTGELGKVPMDAWFFQNPYAEWYENSLRIKESPTWEYHVKTYGENFEYEKFADLFTAEKWDPQEWADLFKKAGAKYVIPTTKHHDGFCLWGTKYTDFNSVKRGPKRDLVGDLAKAVREAGLRFGVYYSGGLDWRFTTEPIRYPEDLSYIRPNTYEYADYAYKQVMELVDLYLPDVLWNNMGWPEKGKEDLKYLFAYYYNKHPEGSVNDRWGVPHWDFKTAEYHVNYPGDLPGYKWEFTRGIGLSFGYNRNEGPEHMLSVEQLVYTLVDVVSKGGNLLLNVGPKGDGTIPDLQKERLLGLGEWLRKYGDAIYGTSVWERCCAKTEDGTEIRFTRKCNRIFVIFLGIPTGEKIVIEDLNLSAGTVRHFLTGERLSFKNVGKNLEITVPKKLLETDSITLVLEAVEE,glycan array binding signal (z-score),Fuc(a1-2)Gal,-0.246
same,glycan array binding signal (z-score),Fuc(a1-2)Gal(b1-3)GalNAc,-0.989
same,glycan array binding signal (z-score),[1],-0.746
same,glycan array binding signal (z-score),[2],0.486
same,glycan array binding signal (z-score),[3],-0.103
same,glycan array binding signal (z-score),[4],-0.864
same,glycan array binding signal (z-score),[5],0.019
same,glycan array binding signal (z-score),Fuc(a1-2)Gal(b1-3)GlcNAc,-0.403
same,glycan array binding signal (z-score),[6],0.227
same,glycan array binding signal (z-score),[7],1.05
same,glycan array binding signal (z-score),[8],-0.202
same,glycan array binding signal (z-score),[9],-0.614
same,glycan array binding signal (z-score),[10],-0.055
same,glycan array binding signal (z-score),[11],0.414
same,glycan array binding signal (z-score),[12],-0.742
same,glycan array binding signal (z-score),[13],-0.396
same,glycan array binding signal (z-score),[14],-0.662
same,glycan array binding signal (z-score),[15],1.51
same,glycan array binding signal (z-score),[16],-0.82
same,glycan array binding signal (z-score),[17],-0.948
same,glycan array binding signal (z-score),[18],-0.754
same,glycan array binding signal (z-score),[19],0.876
same,glycan array binding signal (z-score),Fuc(a1-2)Gal(b1-4)Glc,-0.334
same,glycan array binding signal (z-score),Fuc(a1-2)Gal(b1-4)Glc6S,0.567
same,glycan array binding signal (z-score),Fuc(a1-2)Gal(b1-4)GlcNAc,-0.205
same,glycan array binding signal (z-score),[20],-1.1
same,glycan array binding signal (z-score),[21],-0.138
same,glycan array binding signal (z-score),[22],0.028
same,glycan array binding signal (z-score),[23],0.08
same,glycan array binding signal (z-score),[24],-0.368

# Looked up one by one from the list above:
binder,measurement,setting,value
a L Fucosidase (Thermotoga maritima) (protein) MASMKPRYKPDWESLREHTVPKWFDKAKFGIFIHWGIYSVPGWATPTGELGKVPMDAWFFQNPYAEWYENSLRIKESPTWEYHVKTYGENFEYEKFADLFTAEKWDPQEWADLFKKAGAKYVIPTTKHHDGFCLWGTKYTDFNSVKRGPKRDLVGDLAKAVREAGLRFGVYYSGGLDWRFTTEPIRYPEDLSYIRPNTYEYADYAYKQVMELVDLYLPDVLWNNMGWPEKGKEDLKYLFAYYYNKHPEGSVNDRWGVPHWDFKTAEYHVNYPGDLPGYKWEFTRGIGLSFGYNRNEGPEHMLSVEQLVYTLVDVVSKGGNLLLNVGPKGDGTIPDLQKERLLGLGEWLRKYGDAIYGTSVWERCCAKTEDGTEIRFTRKCNRIFVIFLGIPTGEKIVIEDLNLSAGTVRHFLTGERLSFKNVGKNLEITVPKKLLETDSITLVLEAVEE,glycan array binding signal (z-score),[22],0.028
same,glycan array binding signal (z-score),[13],-0.396

# From the supplement of paper PMC8728848
